The supplement of paper PMC12889115
This is one part of the list. These are raw signals, not scaled to a control.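 In the initial screen, polymyxin B was used at a concentration that permeabilizes Salmonella's outer membrane but not its inner membrane. Maximum growth was set by DMSO wells with or without polymyxin B. Since plates varied, data were ranked per plate, and compounds giving the lowest OD600 advanced as hits.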

Tested on: Salmonella enterica serovar Typhimurium SL1344
Assay: bacterial growth OD600 after 18 h with compound and polymyxin B; higher = more bacterial growth (less inhibition)
Settings: 50 µM, Mueller-Hinton broth

Structure (SMILES) | bacterial growth OD600 (polymyxin B 1 µg/mL) | bacterial growth OD600 (polymyxin B 0.75 µg/mL)
COCc1ccc(CN2CCC(Oc3cc(Cl)ccc3C(=O)N3CCCCC3)CC2)o1 | 1 | 
CCCn1c(C)c(CC(=O)NCCc2cscn2)c2c1CC(C)(C)CC2=O |  | 0.798
CCn1c(-c2cccnc2)nc2cc(NC(=O)COC)cc(C(=O)NC3CCCc4ccccc43)c21 (stereo not given) |  | 0.837
C=CCCC(=O)NCc1cc(NS(=O)(=O)c2cccc(C(F)(F)F)c2)cc(C(=O)OC)c1 |  | 0.734
Cn1ccnc1CNC(=O)C1(N2CCCCC2)Cc2ccccc2C1 |  | 0.972
COc1cc(CC2(CCC(=O)NCCCOc3cccnc3)CCC(=O)N2)ccc1F (stereo not given) |  | 0.846
O=C(c1ccccc1)C1CCCN(C(=O)CC2(c3cccc(F)c3)CC(=O)N(C3CCCC3)C2=O)C1 (stereo not given) |  | 0.007
CCOc1ccccc1C1c2[nH]c3ccccc3c2CCN1C(=O)c1nc2ncccn2n1 (stereo not given) | 0.06 | 
COCCN(Cc1ccc(COC)o1)CC1CCCN(C2Cc3ccccc3C2)C1 (stereo not given) | 0.834 | 
COCCNC(=O)c1ccc(OC)cc1OC1CCN(C2Cc3ccccc3C2)CC1 | 0.893 | 
CC(C)Cn1cc(C(=O)N(C)Cc2cc3ccccc3s2)c(=O)c(C(=O)N2CCCCCC2)c1 |  | 0.844
COc1ccccc1C(=O)C1CCCN(C(=O)c2csc(-c3cccs3)n2)C1 (stereo not given) | 0.009 | 
CCc1ccc(CN2CCC(Oc3cc(C(=O)NC4CC4)ccc3OC)CC2)cc1 | 0.942 | 
CCN(CC)C(=O)Cn1cc(C(=O)N2CCCC2c2cccc(OC)c2)nn1 (stereo not given) | 0.788 | 
CO[C@H]1[C@H](NC(=O)c2ccccn2)c2ccccc2C12CCN(C(=O)CC1=CCCCC1)CC2 |  | 0.848
COc1ccccc1-n1cc(C(=O)N2CC[C@@H](N3CCN(C)CC3)[C@H](O)C2)cn1 | 1.25 | 
Cc1nc2sccn2c1C(=O)N1CCC(n2nccc2NC(=O)C(C)(C)C)CC1 | 0.97 | 
CCOC(=O)CNC(=O)N1CCCC(Cc2ccc(F)cc2F)(C(=O)OCC)C1 (stereo not given) | 0.828 | 
CCn1c(-c2cccnc2)nc2cc(NC(=O)COC)cc(C(=O)N(C)Cc3ccc(C)cc3)c21 |  | 0.846
COc1ccc(CN2CCN(Cc3ccccc3F)C(CCO)C2)cc1OC (stereo not given) | 0.882 | 
Oc1ccc(CN2CCCC(c3ccnc(SCCN4CCCC4)n3)C2)cc1 (stereo not given) |  | 0.777
COCCCN1C(=O)CC(CC(=O)N2CC3(C)CC2CC(C)(C)C3)(c2ccccc2Cl)C1=O (stereo not given) |  | 0
Cc1nc(CCNC(=O)c2coc(CN3CCN(c4ccccc4F)CC3)n2)sc1C | 0.881 | 
Cc1nc(CCNC(=O)C2CCC(=O)N(CCCN3CCOCC3)C2)sc1C (stereo not given) | 0.935 | 
CN(Cc1ccccc1)C1(CNCc2nccn2C)Cc2ccccc2C1 |  | 0.68
COC1CCN(Cc2cn(Cc3ccccc3)nc2-c2cc3ccccc3o2)CC1 | 0.582 | 
COc1cccc(N2C(=O)CN(C(=O)c3ccccc3C(F)(F)F)CC2C)c1 (stereo not given) |  | 0.902
C=CCNC(=O)C1CCCN(C2CCN(Cc3ccccc3)CC2)C1 (stereo not given) |  | 0.803
O[C@H]1CCN(c2ccc(-c3nc(Cc4ccccc4)no3)cn2)C1 |  | 0.898
COc1ccc(CC2(CCC(=O)NCC(C)c3ccccc3)CCC(=O)N2)c2ccccc12 (stereo not given) |  | 0.822

2 entries picked at random from the list so far:
Structure (SMILES) | bacterial growth OD600 (polymyxin B 1 µg/mL) | bacterial growth OD600 (polymyxin B 0.75 µg/mL)
COCCCN1C(=O)CC(CC(=O)N2CC3(C)CC2CC(C)(C)C3)(c2ccccc2Cl)C1=O (stereo not given) |  | 0
COCCNC(=O)c1ccc(OC)cc1OC1CCN(C2Cc3ccccc3C2)CC1 | 0.893 | 
